Laboratory results published in the supplement of paper PMC10849652.
The list shows a part of the results.

Chains of the proteins cited; added tags and fusions are not shown. Lines headed by an entry give the natural chain unless they say otherwise; changes in a name come on top.
UniProt Q9NUP7: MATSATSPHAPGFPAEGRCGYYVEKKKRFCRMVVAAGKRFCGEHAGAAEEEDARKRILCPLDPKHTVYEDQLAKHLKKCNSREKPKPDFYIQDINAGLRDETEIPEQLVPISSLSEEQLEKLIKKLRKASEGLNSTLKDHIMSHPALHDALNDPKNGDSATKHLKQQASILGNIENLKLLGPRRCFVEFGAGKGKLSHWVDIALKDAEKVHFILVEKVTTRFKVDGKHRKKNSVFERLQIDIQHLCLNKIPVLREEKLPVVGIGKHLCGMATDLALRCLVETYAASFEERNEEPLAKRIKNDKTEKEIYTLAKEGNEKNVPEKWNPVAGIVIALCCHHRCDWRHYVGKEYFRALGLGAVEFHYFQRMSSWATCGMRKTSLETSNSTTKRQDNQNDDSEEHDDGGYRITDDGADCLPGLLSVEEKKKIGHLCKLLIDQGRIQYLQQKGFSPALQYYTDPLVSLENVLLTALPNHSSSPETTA
UniProt Q12933: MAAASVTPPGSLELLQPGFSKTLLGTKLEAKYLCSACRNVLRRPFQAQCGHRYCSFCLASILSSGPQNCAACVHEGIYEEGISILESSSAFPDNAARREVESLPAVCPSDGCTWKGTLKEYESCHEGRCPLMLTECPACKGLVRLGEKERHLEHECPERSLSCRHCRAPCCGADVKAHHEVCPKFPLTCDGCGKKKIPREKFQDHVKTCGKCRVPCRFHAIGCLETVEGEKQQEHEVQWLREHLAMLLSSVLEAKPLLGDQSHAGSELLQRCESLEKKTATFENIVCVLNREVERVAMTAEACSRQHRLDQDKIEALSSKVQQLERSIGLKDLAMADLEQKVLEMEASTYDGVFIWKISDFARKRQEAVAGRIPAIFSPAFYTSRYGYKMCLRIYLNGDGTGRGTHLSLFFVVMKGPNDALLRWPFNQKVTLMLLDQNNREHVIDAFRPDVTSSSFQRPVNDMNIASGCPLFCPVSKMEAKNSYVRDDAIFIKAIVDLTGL
UniProt Q7Z4L5: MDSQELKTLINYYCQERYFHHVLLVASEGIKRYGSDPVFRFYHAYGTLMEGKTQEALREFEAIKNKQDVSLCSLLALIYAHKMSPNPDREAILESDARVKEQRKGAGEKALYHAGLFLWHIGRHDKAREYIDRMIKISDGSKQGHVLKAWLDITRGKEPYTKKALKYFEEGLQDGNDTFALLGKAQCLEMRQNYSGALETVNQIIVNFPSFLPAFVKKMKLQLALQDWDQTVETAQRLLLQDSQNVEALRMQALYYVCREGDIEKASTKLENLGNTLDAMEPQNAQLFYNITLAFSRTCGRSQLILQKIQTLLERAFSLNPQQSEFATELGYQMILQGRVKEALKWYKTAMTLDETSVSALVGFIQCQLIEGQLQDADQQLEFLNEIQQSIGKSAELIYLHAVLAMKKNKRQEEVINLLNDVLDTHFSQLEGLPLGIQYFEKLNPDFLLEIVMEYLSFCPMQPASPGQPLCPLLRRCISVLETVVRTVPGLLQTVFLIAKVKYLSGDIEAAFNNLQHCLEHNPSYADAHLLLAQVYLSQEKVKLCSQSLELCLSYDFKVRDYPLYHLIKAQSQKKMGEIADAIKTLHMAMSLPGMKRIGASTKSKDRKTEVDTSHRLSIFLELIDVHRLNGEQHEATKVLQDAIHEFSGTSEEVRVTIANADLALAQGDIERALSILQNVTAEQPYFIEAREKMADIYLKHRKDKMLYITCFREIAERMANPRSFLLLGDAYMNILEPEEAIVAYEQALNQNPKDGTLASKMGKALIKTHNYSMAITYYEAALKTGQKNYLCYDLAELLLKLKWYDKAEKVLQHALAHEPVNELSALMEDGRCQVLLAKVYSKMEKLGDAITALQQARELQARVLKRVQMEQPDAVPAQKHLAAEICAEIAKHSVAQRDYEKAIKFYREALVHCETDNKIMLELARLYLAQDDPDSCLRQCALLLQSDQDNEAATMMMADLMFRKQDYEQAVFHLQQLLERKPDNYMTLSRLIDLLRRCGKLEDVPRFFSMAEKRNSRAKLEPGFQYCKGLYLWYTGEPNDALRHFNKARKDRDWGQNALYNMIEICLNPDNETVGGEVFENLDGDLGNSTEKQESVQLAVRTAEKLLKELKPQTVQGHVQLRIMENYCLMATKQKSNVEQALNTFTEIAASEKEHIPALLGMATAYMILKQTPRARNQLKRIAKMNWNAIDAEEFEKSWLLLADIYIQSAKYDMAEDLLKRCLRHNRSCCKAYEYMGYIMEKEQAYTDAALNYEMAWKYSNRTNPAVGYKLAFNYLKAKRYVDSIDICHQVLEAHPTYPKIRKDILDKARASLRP
UniProt Q5T7W7: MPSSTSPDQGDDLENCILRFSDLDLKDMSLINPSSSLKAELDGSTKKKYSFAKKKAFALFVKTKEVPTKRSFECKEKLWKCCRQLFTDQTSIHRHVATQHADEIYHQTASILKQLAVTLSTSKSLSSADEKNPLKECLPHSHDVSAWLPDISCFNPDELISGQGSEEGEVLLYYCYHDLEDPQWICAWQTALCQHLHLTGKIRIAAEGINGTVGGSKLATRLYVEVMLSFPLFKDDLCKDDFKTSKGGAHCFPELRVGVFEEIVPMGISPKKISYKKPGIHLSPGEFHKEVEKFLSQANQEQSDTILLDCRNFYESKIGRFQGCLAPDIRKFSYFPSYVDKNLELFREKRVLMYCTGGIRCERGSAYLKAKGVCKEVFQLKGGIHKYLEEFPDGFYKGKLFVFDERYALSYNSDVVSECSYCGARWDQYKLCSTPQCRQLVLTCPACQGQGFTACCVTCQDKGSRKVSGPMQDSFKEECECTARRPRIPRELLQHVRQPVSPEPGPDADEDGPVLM
UniProt Q99816: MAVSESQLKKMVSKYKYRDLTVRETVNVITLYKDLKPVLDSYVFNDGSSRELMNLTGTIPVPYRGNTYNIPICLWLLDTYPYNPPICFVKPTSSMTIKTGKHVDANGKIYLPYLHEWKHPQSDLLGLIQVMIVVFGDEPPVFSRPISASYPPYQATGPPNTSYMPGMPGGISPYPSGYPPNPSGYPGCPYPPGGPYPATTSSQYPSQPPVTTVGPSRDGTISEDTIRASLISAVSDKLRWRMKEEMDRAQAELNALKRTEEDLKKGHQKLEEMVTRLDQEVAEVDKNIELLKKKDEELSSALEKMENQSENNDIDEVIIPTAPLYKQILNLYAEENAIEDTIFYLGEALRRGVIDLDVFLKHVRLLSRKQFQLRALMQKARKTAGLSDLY
UniProt Q86TN4: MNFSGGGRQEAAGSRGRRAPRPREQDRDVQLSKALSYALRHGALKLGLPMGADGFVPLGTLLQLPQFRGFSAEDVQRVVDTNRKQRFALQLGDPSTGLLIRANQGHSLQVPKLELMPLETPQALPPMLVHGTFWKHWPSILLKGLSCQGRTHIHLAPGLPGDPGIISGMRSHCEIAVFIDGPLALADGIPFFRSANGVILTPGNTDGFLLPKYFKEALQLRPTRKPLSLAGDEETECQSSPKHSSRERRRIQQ
UniProt O15164: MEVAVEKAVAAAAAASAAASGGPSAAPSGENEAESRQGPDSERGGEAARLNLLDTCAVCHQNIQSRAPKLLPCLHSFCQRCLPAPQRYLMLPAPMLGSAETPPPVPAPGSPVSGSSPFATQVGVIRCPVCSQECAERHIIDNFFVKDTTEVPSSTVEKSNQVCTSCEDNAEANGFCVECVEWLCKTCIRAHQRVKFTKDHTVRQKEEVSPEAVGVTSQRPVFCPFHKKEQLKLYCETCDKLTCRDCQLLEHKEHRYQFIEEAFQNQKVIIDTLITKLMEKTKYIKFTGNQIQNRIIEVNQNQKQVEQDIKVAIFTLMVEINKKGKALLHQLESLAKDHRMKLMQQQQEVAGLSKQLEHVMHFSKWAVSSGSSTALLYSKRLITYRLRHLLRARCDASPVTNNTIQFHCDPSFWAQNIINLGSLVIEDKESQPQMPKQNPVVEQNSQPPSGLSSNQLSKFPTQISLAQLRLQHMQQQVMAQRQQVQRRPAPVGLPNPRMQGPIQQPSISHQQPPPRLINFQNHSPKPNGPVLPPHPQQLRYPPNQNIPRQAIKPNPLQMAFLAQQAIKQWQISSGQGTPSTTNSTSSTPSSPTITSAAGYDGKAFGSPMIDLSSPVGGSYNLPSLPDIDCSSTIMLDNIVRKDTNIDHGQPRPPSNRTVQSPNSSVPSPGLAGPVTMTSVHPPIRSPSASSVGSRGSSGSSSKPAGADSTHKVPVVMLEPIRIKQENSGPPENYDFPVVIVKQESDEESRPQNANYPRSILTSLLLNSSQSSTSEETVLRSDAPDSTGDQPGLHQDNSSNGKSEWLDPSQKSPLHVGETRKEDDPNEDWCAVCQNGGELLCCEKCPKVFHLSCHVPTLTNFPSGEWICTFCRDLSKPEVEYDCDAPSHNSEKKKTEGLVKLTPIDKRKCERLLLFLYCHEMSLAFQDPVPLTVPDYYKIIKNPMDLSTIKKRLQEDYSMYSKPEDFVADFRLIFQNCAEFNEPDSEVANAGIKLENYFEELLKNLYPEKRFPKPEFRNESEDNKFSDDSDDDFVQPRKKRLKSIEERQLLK
UniProt Q8TEL6: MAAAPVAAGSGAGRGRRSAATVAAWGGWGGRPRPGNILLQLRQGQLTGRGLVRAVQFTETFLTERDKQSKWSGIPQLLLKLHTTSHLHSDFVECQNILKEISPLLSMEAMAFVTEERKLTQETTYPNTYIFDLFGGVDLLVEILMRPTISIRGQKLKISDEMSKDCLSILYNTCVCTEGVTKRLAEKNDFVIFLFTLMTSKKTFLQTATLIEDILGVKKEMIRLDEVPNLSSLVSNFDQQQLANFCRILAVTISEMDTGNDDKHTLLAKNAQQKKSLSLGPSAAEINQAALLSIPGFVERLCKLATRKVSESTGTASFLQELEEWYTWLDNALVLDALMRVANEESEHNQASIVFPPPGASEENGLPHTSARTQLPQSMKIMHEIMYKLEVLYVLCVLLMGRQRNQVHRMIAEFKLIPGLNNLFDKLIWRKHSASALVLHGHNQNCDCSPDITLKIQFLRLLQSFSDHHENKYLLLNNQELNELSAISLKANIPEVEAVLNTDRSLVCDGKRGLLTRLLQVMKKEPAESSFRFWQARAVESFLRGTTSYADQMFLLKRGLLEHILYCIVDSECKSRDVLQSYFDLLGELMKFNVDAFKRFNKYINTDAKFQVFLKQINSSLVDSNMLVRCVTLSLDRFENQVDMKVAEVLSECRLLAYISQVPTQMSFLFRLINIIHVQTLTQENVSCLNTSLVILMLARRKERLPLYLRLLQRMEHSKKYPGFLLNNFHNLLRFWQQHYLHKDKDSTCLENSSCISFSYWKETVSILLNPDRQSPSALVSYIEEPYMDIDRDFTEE
UniProt Q6PID6, whole entry, looked up: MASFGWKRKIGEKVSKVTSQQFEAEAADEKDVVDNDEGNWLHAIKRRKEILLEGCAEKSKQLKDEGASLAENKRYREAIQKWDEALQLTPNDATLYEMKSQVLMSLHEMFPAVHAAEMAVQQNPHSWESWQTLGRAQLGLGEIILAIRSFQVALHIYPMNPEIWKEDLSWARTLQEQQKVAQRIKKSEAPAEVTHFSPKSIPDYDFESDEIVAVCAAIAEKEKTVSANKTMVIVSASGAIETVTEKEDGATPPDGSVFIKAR
UniProt Q5R3I4: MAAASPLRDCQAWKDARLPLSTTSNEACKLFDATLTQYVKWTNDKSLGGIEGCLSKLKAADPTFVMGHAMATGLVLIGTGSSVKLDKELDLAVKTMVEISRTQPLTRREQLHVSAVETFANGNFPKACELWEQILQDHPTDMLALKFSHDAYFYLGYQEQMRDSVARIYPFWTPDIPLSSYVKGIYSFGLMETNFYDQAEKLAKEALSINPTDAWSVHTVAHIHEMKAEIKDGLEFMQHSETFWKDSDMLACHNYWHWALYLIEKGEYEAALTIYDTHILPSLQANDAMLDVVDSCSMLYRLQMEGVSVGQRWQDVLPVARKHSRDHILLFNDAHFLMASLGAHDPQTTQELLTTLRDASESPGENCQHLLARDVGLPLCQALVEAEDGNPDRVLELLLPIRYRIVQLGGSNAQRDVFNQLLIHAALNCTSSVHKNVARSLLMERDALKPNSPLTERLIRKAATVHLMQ
UniProt Q8NG06: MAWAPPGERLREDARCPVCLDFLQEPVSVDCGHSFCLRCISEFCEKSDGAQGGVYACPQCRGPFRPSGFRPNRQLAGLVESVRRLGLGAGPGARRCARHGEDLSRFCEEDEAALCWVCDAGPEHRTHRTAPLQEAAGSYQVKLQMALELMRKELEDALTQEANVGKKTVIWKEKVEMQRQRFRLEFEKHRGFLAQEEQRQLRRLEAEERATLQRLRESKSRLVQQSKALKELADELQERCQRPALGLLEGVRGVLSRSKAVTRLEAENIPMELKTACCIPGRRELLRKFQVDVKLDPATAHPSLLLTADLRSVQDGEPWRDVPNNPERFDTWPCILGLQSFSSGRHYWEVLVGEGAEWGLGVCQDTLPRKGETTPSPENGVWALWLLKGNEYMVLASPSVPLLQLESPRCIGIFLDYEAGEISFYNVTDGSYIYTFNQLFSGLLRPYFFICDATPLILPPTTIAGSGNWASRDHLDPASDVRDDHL

How the values were obtained:
Assay in all cases: log2 fold change, soluble protein after heating vs DMSO (PISA); higher = thermal stabilisation; K562 lysate, 10 uM; active = over 0.2 and 3.5 SD of the protein, either way, in both replicates (recomputed)
[1] = compound: C1=CC=C(C=C1)[C@H](COC2=CC3=C(C=C2)NC(=O)N3)NC(=O)C4=CC=CN(C4=O)CC5=CC(=C(C=C5)F)F
Summary of the method: (§1)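 Thermal stability, expressed as log-two fold change relative to solvent controls, is given from duplicates. Crude K562 extract in PBS pH 7.4 with 1 mM MgCl2, at 1 mg/mL protein, was treated with 10 μM compound for 30 min and heated in aliquots for 3 min across 48°C-58°C. After pooling, adjustment to 0.5% NP-40 at 4°C and centrifugation at 21,000xg for 90 min, supernatant protein was measured by TMTpro 16plex LC-MS/MS with channel sums equalised.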

[2] = compound: CC1=C(SC2=C1C(=N[C@H](C3=NN=C(N32)C)CC(=O)N)C4=CC=C(C=C4)Cl)C
Summary of the method: as §1

[3] = compound: CC1=C2C(=CC=C1)N=C(N(C2=O)C3=CC=CC=C3C)CN4C=NC5=C(N=CN=C54)N
Summary of the method: as §1

[4] = compound: Cc1sc2c(c1C)C(c1ccc(Cl)cc1)=N[C@@H](CC(=O)OC(C)(C)C)c1nnc(C)n1-2
Summary of the method: as §1

[5] = compound: c1ccc([C@@H]2C[C@H]2NC2CCNCC2)cc1
Summary of the method: as §1

Measured: log2 fold change

TRIM23 (UniProt P36406)
inactive: [1] 0.036 | [2] -0.05 | [3] 0.052 | [4] 0.034 | [5] -0.275

TRAF3 (UniProt Q13114)
inactive: [1] -0.197 | [2] -0.084 | [3] -0.028 | [4] 0.001 | [5] -0.021

TRMT13 (UniProt Q9NUP7)
inactive: [1] 0.013 | [2] -0.012 | [3] 0.004 | [4] 0.009 | [5] -0.066

TRAF2 isoform 2 (UniProt Q12933)
inactive: [1] -0.006 | [2] 0.005 | [3] -0.005 | [4] -0.002 | [5] -0.015

TTC21B (UniProt Q7Z4L5)
inactive: [1] 0.208 | [2] 0.046 | [3] 0.068 | [4] -0.276 | [5] -0.065

TTC7B isoform 2 (UniProt Q86TV6)
inactive: [1] -0.036 | [2] -0.085 | [3] 0.009 | [4] -0.04 | [5] 0.026

TRMT5 (UniProt Q32P41)
inactive: [1] -0.009 | [2] -0.01 | [3] 0.046 | [4] 0.021 | [5] -0.014

TRIM28 (UniProt Q13263)
inactive: [1] 0.008 | [2] -0.001 | [3] 0.003 | [4] 0.011 | [5] 0.034

TSTD2 (UniProt Q5T7W7)
inactive: [1] -0.05 | [2] -0.076 | [3] -0.058 | [4] 0.063 | [5] 0.165

TSG101 (UniProt Q99816)
inactive: [1] 0.013 | [2] 0.003 | [3] 0.018 | [4] 0.008 | [5] -0.089

TRPV2 (UniProt Q9Y5S1)
inactive: [1] 0.041 | [2] -0.017 | [3] 0.019 | [4] 0.013 | [5] -0.048

TRPT1 isoform 4 (UniProt Q86TN4)
inactive: [1] -0.035 | [2] 0.032 | [3] 0.015 | [4] 0.104 | [5] 0.145

TRIP10 isoform 2 (UniProt Q15642)
inactive: [1] 0.028 | [2] 0.023 | [3] -0.136 | [4] -0.212 | [5] 0.004

TRIM24 (UniProt O15164)
inactive: [1] 0.018 | [2] -0.031 | [3] 0.021 | [4] 0.015 | [5] 0.034

TRPC4AP (UniProt Q8TEL6)
inactive: [1] -0.013 | [2] -0.014 | [3] 0.041 | [4] -0.08 | [5] 0.034

TRAPPC11 (UniProt Q7Z392)
inactive: [1] 0.022 | [2] 0.023 | [3] 0.05 | [4] -0.001 | [5] -0.008

TRIP12 isoform 2 (UniProt Q14669)
inactive: [1] -0.043 | [2] 0.07 | [3] -0.018 | [4] 0 | [5] 0.062

TRMT6 (UniProt Q9UJA5)
inactive: [1] 0.042 | [2] -0.008 | [3] 0.017 | [4] 0.002 | [5] 0.022

TTC33 (UniProt Q6PID6)
inactive: [1] 0.03 | [2] -0.037 | [3] 0.003 | [4] -0.036 | [5] 0.034

TSR1 (UniProt Q2NL82)
inactive: [1] 0.01 | [2] 0.026 | [3] 0.038 | [4] 0.041 | [5] 0.067

TTC38 (UniProt Q5R3I4)
inactive: [1] -0.001 | [2] 0 | [3] 0.05 | [4] 0.003 | [5] 0.126

2 records drawn at random from those above:
TRIP12 isoform 2 (UniProt Q14669)
inactive: [1] -0.043 | [2] 0.07 | [3] -0.018 | [4] 0 | [5] 0.062

TRMT6 (UniProt Q9UJA5)
inactive: [1] 0.042 | [2] -0.008 | [3] 0.017 | [4] 0.002 | [5] 0.022

Continued:

TRIM58 (UniProt Q8NG06)
inactive: [1] -0.011 | [2] 0.064 | [3] -0.037 | [4] 0.032 | [5] 0.037

TSR2 (UniProt Q969E8)
inactive: [1] -0.008 | [2] -0.02 | [3] 0.019 | [4] 0.03 | [5] 0.038

TRAF4 (UniProt Q9BUZ4)
inactive: [1] 0.153 | [2] 0.094 | [3] 0.052 | [4] -0.011 | [5] -0.011
